Assay: Cleavage test of BSA conjugates captured on streptavidin-ultralink resin
Details: for cleavage efficiency on streptavidin-ultralink resin, 7c compared to 7b: 1% TFA; for release of BSA from streptavidin resin under cleavage conditions: 1% TFA at 37° C., 1 hour

Row | Substance | cleavage efficiency on streptavidin-ultralink resin, 7c compared to 7b | release of BSA from streptavidin resin under cleavage conditions
1 | BSA-7b: alkyne functionalized BSA conjugated to probe 7b by azide-alkyne cycloaddition | similar | successfully released from resin
2 | BSA-7c: alkyne functionalized BSA conjugated to probe 7c by azide-alkyne cycloaddition | similar | –
3 | Biotin-PEG10-N3 [Compound 8, reference compound] | – | a small amount of BSA conjugated to non-acetal probe 8 was released from the resin
